Results are given in words; binding and its absence hold for the method and conditions named. Binding seen in cells or lysates may run through a third protein. Some results given as binding are weak or reduced against the parent protein; the word gives no strength.

Sequences of proteins named here, by UniProt entry; tags and fusion partners are left off. Residues count along the entry.
UniProt O60674: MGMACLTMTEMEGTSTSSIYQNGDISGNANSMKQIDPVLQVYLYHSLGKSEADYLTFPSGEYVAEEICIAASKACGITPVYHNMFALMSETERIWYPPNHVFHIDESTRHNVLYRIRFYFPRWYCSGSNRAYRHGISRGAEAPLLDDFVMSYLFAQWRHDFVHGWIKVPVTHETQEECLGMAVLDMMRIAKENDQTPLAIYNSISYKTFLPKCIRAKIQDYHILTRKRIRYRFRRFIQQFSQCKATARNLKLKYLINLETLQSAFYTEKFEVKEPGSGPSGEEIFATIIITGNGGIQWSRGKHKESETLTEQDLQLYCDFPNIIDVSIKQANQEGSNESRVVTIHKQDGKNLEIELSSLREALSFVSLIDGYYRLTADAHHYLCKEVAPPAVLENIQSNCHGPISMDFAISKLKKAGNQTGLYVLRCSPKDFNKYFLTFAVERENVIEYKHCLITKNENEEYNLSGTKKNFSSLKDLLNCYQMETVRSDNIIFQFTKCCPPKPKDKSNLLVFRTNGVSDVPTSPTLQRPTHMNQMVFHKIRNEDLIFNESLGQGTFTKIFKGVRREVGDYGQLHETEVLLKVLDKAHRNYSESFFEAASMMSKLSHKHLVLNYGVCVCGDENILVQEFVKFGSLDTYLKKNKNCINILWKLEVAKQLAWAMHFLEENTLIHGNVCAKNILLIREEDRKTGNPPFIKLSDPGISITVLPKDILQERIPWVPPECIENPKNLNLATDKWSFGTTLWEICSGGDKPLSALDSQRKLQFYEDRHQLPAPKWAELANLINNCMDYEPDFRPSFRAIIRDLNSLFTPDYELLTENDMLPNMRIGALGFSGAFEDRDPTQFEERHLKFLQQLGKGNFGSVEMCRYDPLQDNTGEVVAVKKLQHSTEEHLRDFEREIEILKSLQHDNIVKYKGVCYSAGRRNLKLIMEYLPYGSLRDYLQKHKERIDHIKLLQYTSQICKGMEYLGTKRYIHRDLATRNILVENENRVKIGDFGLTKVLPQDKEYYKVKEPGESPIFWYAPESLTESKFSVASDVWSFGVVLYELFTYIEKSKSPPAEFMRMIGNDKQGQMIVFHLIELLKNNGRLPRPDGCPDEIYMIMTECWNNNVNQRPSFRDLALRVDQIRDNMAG
UniProt P22301, residues 19-178: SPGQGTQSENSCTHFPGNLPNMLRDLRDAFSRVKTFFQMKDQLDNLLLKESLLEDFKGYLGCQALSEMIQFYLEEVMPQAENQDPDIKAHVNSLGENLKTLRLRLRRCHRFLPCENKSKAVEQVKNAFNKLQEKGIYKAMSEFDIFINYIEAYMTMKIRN

In this assay the target is GST-JAK2 (full-length) (UniProt O60674). The assay can be described thus: pull-down; GST-JAK2 (full-length) or GST-Tag mixed with cell lysates expressing His-IL-10 for 1 h at 4 C; 50 mM Tris-HCl pH 7.5, 0.05% Triton X-100, 300 mM NaCl; immunoblot for His-IL-10; only the target purified. (Immunoblotting shows a protein as a band on a membrane.)

Consider His-IL-10 (from UniProt P22301 19-178), for which the binding entry is given as “binds”.

The record behind these values is article PMC5342110.
